According to US20200405700A1 (priority 2019, published 2020):
Some entries share one result that the patent states for a list of compounds.

Experiment: Aerodynamic particle size distribution on Next Generation Impactor (NGI)
Assay type: physicochemical
Settings: sample 14 sprayed by soft mist inhaler, NGI at 30 L/min; listed as aclidinium bromide
Method: Sample 14 was sprayed by a soft mist inhaler. Aerodynamic particle size distribution of droplets of sample 14 was measured on a Next Generation Impactor (NGI). Next Generation Impactor operated at a flow rate of 30 L/min was used for determination of particle size distribution. For each of the impactor experiments, the impactor collection stages were coated with a silicone oil. The particle size distribution is expressed in terms of mass median aerodynamic diameter (MMAD) and Geometric Standard Deviation (GSD).

For O=C(O[C@H]1C[N+]2(CCCOc3ccccc3)CCC1CC2)C(O)(c1cccs1)c1cccs1.[Br-] [Aclidinium bromide, 3(R)-(2-hydroxy-2,2-dithien-2-ylacetoxy)-1-(3-phenoxypropyl)-1-azoniabicy-clo[2.2.2]octane bromide], the “MMAD (mass median aerodynamic diameter)” value was “less than 10 μm”.
